Source: PubChem BioAssay AID652259 (Drosophila RNAi Screening Center, 2013)
In all, the deposit lists about 22,000 reagents; shown is a random part of those that have a named target and a result. Over the whole deposit, 233 (1.1%) were called active. 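Light values are raw, unnormalised plate reads; the ratio scores behind the reporter calls were not deposited.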 Reagents against one gene are numbered here. A plus sign joins genes that one reagent is predicted to hit. Reagent sequences are not shown. Not stated in the record: the amount of reagent, the time to read-out, the dose of the treatment.

Assay: 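Identify new Wingless signalling regulators in fly cells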 (primary screen)
System: Drosophila clone 8 imaginal disc epithelial cells
Reagent: long dsRNA against Drosophila genes
Challenge: pathway stimulated by co-transfected Wingless expression plasmid
Detection: 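Dual luciferase reads per well after Wingless plasmid stimulation: reporter firefly light and Renilla control light; activity is firefly divided by Renilla, a ratio not deposited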
Scale: firefly reporter light: higher = more Wg reporter light, before normalisation; Renilla control light: higher = more transfected or surviving cells
Hit rule: 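Strong candidates differ from their plate mean by at least two out of four per-plate statistical tests; weak candidates meet just one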
Calls: active = candidate regulator (raises or lowers reporter); inactive = not a candidate

| predicted target | reagent no. | reporter change call, replicate 1 | firefly reporter light, replicate 1 | firefly reporter light, replicate 2 | Renilla control light, replicate 1 | Renilla control light, replicate 2 | Outcome |
| --- | --- | --- | --- | --- | --- | --- | --- |
| CG12637 | 1 | – | 21229 | – | 11472 | – | inactive |
| Nmdar2 | 1 | – | 26082 | – | 16981 | – | inactive |
| Nmdar2 | 2 | – | 28320 | – | 18913 | – | inactive |
| Nmdar2 | 3 | – | 22997 | – | 16683 | – | inactive |
| mRpL30 | 1 | – | 16886 | – | 8315 | – | inactive |
| CG18649 | 1 | – | 8982 | – | 2202 | – | inactive |
| Rab9 | 1 | – | 3122 | 8712 | 1126 | 3072 | inactive |
| CG33969 | 1 | – | 11881 | – | 4466 | – | inactive |
| Acbp3 | 1 | – | 1930 | 9259 | 1553 | 3883 | inactive |
| Sclp | 1 | – | 3905 | 9149 | 1349 | 2448 | inactive |
| brv3 | 1 | – | 16434 | – | 11993 | – | inactive |
| CG5866 | 1 | – | 8160 | – | 1578 | – | inactive |
| bsd | 1 | – | 5781 | – | 1000 | – | inactive |
| ppk21 | 1 | – | 5170 | – | 2569 | – | inactive |
| Hpf1 | 1 | – | 7442 | – | 2560 | – | inactive |
| comm3 | 1 | – | 10186 | – | 3469 | – | inactive |
| comm3 | 2 | – | 6944 | – | 2736 | – | inactive |
| comm3 | 3 | – | 7958 | – | 3186 | – | inactive |
| CG11089 + CG31381 | 1 | – | 3442 | – | 1392 | – | inactive |
| CG11089 + CG31381 | 2 | – | 1818 | 4848 | 1277 | 1616 | inactive |
| Act87E | 1 | – | 5.95e5 | 5.49e5 | 1.31e5 | 1.24e5 | inactive |
| nsl1 | 1 | Wg reporter activity raised | 3729 | 6358 | 122 | 200 | active |
| Nup35 | 1 | – | 1996 | 7937 | 753 | 2732 | inactive |
| janA | 1 | – | 6329 | – | 2806 | – | inactive |
| Top3beta | 1 | – | 3059 | 9616 | 1017 | 1872 | inactive |
| pasha | 1 | – | 3766 | 5544 | 1460 | 2157 | inactive |
| lncRNA:CR32690 | 1 | – | 7.20e5 | 7.45e5 | 3.03e5 | 2.83e5 | inactive |
| Madm | 1 | – | 14528 | – | 4715 | – | inactive |
| Eip93F | 1 | – | 3561 | – | 1576 | – | inactive |
| Eip93F | 2 | – | 34775 | – | 6289 | – | inactive |
| Eip93F | 3 | – | 7.37e5 | 7.56e5 | 5.07e5 | 3.77e5 | inactive |
| CG11269 | 1 | – | 2005 | 5744 | 705 | 2432 | inactive |
| Mco3 | 1 | – | 20326 | – | 16744 | – | inactive |
| Galphas | 1 | – | 10666 | – | 4448 | – | inactive |
| ras | 1 | – | 4941 | 5736 | 1149 | 2044 | inactive |
| CG13814 (retired record) | 1 | – | 15076 | – | 2772 | – | inactive |
| Qtzl | 1 | – | 22152 | – | 12323 | – | inactive |
| CG6191 | 1 | – | 10530 | – | 1815 | – | inactive |
| CG12828 | 1 | – | 2836 | 6109 | 652 | 2123 | inactive |
| Elp6 | 1 | – | 5264 | – | 2119 | – | inactive |
| CR42785 | 1 | – | 21627 | – | 10375 | – | inactive |
| lncRNA:CR30009 | 1 | – | 5.67e5 | 6.01e5 | 2.28e5 | 1.87e5 | inactive |
| CASK | 1 | – | 37478 | – | 6641 | – | inactive |
| CASK | 2 | – | 34589 | – | 4965 | – | inactive |
| CASK | 3 | – | 30701 | – | 6049 | – | inactive |
| CASK | 4 | – | 3.99e5 | 4.31e5 | 2.01e5 | 1.86e5 | inactive |
| mib1 | 1 | – | 10836 | – | 3659 | – | inactive |
| CG34249 (retired record) | 1 | – | 1654 | – | 1030 | – | inactive |
| Tsp42Er | 1 | – | 2561 | 8212 | 803 | 3323 | inactive |
| Mlp60A | 1 | – | 2057 | 5617 | 306 | 1192 | inactive |
| Mlp60A | 2 | – | 4.94e5 | 6.09e5 | 2.22e5 | 2.75e5 | inactive |
| Mlp60A | 3 | – | 6.56e5 | 5.57e5 | 1.76e5 | 22696 | inactive |
| CG17294 | 1 | – | 9468 | – | 5336 | – | inactive |
| Got2 | 1 | – | 8092 | – | 4240 | – | inactive |
| SerRS-m | 1 | – | 18505 | – | 3744 | – | inactive |
| CG14414 | 1 | – | 25671 | – | 10128 | – | inactive |
| CaMKII | 1 | – | 2240 | 7212 | 960 | 2330 | inactive |
| CG18787 + CG18789 | 1 | Wg reporter activity raised | 5507 | 7792 | 713 | 1680 | active |
| Sema5c | 1 | – | 5642 | – | 2221 | – | inactive |
| nom | 1 | – | 14544 | – | 3323 | – | inactive |
| CG14369 | 1 | – | 19091 | – | 4313 | – | inactive |
| CG2712 | 1 | – | 2931 | 7223 | 1361 | 2373 | inactive |
| Edem2 | 1 | – | 3562 | 11111 | 1878 | 5449 | inactive |
| mRpL38 | 1 | – | 15223 | – | 6865 | – | inactive |
| Miox | 1 | – | 7057 | – | 2257 | – | inactive |
| CG9222 | 1 | – | 2560 | 5145 | 794 | 2136 | inactive |
| CG11149 | 1 | – | 1885 | 6135 | 1028 | 2605 | inactive |
| CG13994 | 1 | – | 3127 | 6101 | 784 | 2343 | inactive |
| CR30374 | 1 | – | 19112 | – | 10328 | – | inactive |
| CG8927 | 1 | – | 13864 | – | 2786 | – | inactive |
| EDTP | 1 | – | 9942 | – | 2453 | – | inactive |
| CG9727 | 1 | – | 9504 | – | 2282 | – | inactive |
| LManIV | 1 | – | 3908 | 10853 | 1296 | 3467 | inactive |
| Fum3 | 1 | – | 6397 | – | 3714 | – | inactive |
| Ir94d | 1 | – | 4.83e5 | 4.67e5 | 2.33e5 | 1.61e5 | inactive |
| CG7362 | 1 | – | 18168 | 6.23e5 | 4887 | 3.01e5 | inactive |
| Rchy1 | 1 | – | 2936 | 6489 | 816 | 987 | inactive |
| CG14071 | 1 | – | 2819 | 5218 | 889 | 3062 | inactive |
| CG15425 | 1 | – | 3866 | 10041 | 992 | 2288 | inactive |
| mth | 1 | – | 19004 | – | 5280 | – | inactive |
| MetRS | 1 | – | 6.65e5 | 7.27e5 | 2.70e5 | 1.18e5 | inactive |
| BBS1 | 1 | – | 2394 | – | 832 | – | inactive |
| bisc | 1 | – | 12384 | – | 3501 | – | inactive |
| Drgx | 1 | – | 2748 | 6135 | 1062 | 2344 | inactive |
| Drgx | 2 | – | 2780 | 8377 | 892 | 3029 | inactive |
| mtSSB | 1 | – | 22322 | – | 5401 | – | inactive |
| nop5 | 1 | – | 2170 | 6297 | 871 | 1057 | inactive |
| Grl36a | 1 | – | 4.64e5 | 5.57e5 | 2.28e5 | 2.11e5 | inactive |
| CG18507 | 1 | – | 19047 | – | 9571 | – | inactive |
| CG18507 | 2 | – | 3925 | 8873 | 1602 | 4105 | inactive |
| CG12522 | 1 | – | 1974 | – | 1012 | – | inactive |
| CG32115 | 1 | – | 7.56e5 | 7.01e5 | 3.89e5 | 27639 | inactive |
| CG18547 | 1 | – | 19488 | – | 4592 | – | inactive |

Part of the list above, set out differently.
Mlp60A #1
- firefly reporter light, replicate 1: 2057
- firefly reporter light, replicate 2: 5617
- Renilla control light, replicate 1: 306
- Renilla control light, replicate 2: 1192
- Outcome: inactive

Mlp60A #2
- firefly reporter light, replicate 1: 4.94e5
- firefly reporter light, replicate 2: 6.09e5
- Renilla control light, replicate 1: 2.22e5
- Renilla control light, replicate 2: 2.75e5
- Outcome: inactive

Mlp60A #3
- firefly reporter light, replicate 1: 6.56e5
- firefly reporter light, replicate 2: 5.57e5
- Renilla control light, replicate 1: 1.76e5
- Renilla control light, replicate 2: 22696
- Outcome: inactive

CG17294
- firefly reporter light, replicate 1: 9468
- Renilla control light, replicate 1: 5336
- Outcome: inactive

Got2
- firefly reporter light, replicate 1: 8092
- Renilla control light, replicate 1: 4240
- Outcome: inactive

SerRS-m
- firefly reporter light, replicate 1: 18505
- Renilla control light, replicate 1: 3744
- Outcome: inactive

CG14414
- firefly reporter light, replicate 1: 25671
- Renilla control light, replicate 1: 10128
- Outcome: inactive

CaMKII
- firefly reporter light, replicate 1: 2240
- firefly reporter light, replicate 2: 7212
- Renilla control light, replicate 1: 960
- Renilla control light, replicate 2: 2330
- Outcome: inactive

CG18787 + CG18789
- reporter change call, replicate 1: Wg reporter activity raised
- firefly reporter light, replicate 1: 5507
- firefly reporter light, replicate 2: 7792
- Renilla control light, replicate 1: 713
- Renilla control light, replicate 2: 1680
- Outcome: active

Sema5c
- firefly reporter light, replicate 1: 5642
- Renilla control light, replicate 1: 2221
- Outcome: inactive

nom
- firefly reporter light, replicate 1: 14544
- Renilla control light, replicate 1: 3323
- Outcome: inactive

CG14369
- firefly reporter light, replicate 1: 19091
- Renilla control light, replicate 1: 4313
- Outcome: inactive

CG2712
- firefly reporter light, replicate 1: 2931
- firefly reporter light, replicate 2: 7223
- Renilla control light, replicate 1: 1361
- Renilla control light, replicate 2: 2373
- Outcome: inactive

Edem2
- firefly reporter light, replicate 1: 3562
- firefly reporter light, replicate 2: 11111
- Renilla control light, replicate 1: 1878
- Renilla control light, replicate 2: 5449
- Outcome: inactive

mRpL38
- firefly reporter light, replicate 1: 15223
- Renilla control light, replicate 1: 6865
- Outcome: inactive
